From article doi:10.1101/2021.12.17.473173
These are yes or no findings as the source states them, for the method shown. In cells and extracts the contact can be indirect. These calls come from enrichment with a bait or labelling near it, and not all partners need be listed.

Protein sequences, listed by entry. Tags and fused reporters are not part of them.
UniProt Q9ULT8: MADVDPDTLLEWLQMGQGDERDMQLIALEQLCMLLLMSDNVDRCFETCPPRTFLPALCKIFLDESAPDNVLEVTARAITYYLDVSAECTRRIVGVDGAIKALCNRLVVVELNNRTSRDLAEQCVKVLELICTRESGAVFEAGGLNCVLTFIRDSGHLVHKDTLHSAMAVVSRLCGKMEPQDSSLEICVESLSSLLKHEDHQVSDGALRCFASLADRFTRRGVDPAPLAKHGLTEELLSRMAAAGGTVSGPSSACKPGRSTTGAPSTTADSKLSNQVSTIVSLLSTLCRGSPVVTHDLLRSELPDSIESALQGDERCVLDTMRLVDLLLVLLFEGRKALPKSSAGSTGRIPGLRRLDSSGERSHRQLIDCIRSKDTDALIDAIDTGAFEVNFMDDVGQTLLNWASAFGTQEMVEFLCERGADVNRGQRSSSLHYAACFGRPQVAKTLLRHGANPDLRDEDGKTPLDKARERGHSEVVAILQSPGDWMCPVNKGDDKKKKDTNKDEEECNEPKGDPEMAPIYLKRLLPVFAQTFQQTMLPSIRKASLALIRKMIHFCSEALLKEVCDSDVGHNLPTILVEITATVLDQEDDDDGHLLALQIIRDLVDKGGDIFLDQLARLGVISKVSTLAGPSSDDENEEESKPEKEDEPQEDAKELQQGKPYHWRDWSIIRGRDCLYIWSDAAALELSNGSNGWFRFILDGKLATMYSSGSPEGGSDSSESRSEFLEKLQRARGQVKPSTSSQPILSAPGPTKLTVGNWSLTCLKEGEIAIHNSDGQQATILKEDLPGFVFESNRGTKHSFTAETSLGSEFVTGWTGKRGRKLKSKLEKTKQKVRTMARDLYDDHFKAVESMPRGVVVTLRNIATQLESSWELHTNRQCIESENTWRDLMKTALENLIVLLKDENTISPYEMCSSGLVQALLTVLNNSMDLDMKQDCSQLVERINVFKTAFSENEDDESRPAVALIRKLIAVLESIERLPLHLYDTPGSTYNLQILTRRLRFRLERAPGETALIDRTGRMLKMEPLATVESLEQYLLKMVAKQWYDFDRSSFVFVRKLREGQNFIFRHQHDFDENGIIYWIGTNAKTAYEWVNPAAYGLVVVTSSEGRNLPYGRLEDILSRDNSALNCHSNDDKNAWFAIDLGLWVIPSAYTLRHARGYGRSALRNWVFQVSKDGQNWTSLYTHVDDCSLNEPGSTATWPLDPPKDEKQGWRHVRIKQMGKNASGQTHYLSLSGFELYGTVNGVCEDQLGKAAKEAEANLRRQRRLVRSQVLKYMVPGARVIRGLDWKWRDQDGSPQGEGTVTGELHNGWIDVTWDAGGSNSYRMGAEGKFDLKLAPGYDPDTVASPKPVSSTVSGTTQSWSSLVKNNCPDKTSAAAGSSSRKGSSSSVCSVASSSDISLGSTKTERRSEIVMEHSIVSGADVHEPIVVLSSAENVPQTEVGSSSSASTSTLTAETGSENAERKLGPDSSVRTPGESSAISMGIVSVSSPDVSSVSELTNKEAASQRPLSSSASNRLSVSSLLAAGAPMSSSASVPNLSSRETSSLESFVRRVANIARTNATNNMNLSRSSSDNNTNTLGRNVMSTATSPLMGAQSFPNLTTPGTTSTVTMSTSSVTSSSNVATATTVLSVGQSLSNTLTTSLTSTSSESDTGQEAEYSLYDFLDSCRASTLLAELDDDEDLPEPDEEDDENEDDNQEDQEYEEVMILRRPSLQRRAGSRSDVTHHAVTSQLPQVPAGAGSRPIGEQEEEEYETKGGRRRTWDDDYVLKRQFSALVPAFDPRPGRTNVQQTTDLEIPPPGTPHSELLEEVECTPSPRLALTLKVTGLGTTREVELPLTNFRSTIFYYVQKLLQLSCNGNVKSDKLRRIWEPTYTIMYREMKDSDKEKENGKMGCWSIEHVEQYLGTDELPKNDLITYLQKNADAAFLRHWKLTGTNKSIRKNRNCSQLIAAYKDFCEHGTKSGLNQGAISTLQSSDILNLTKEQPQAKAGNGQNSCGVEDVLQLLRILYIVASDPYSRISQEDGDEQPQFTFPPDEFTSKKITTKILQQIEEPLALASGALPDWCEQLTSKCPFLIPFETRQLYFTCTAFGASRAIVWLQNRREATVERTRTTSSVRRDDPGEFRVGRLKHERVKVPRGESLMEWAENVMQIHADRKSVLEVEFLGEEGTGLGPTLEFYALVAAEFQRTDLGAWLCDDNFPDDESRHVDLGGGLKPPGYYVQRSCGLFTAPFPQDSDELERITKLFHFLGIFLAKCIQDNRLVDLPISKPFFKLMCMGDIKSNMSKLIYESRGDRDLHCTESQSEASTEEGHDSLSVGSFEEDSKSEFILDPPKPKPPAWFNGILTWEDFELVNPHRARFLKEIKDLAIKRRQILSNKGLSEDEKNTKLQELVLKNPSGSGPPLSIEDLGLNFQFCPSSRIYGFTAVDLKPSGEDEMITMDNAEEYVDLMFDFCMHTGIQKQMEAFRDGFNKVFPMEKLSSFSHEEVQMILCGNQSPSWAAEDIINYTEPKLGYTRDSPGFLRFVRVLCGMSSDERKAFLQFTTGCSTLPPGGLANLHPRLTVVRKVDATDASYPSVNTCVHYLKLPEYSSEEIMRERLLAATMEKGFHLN
UniProt O43684: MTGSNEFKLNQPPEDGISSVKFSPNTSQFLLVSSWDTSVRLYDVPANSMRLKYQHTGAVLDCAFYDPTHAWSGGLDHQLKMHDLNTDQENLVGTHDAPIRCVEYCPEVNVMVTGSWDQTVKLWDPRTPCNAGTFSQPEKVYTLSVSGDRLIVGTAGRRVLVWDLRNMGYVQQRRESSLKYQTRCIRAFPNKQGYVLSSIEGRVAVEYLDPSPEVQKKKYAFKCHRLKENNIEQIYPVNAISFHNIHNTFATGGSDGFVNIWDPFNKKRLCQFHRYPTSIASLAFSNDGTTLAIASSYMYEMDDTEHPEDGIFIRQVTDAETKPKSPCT

Biological target: HECTD1 (endogenous) (human (endogenous in HEK293T)) (UniProt Q9ULT8)
Test: affinity purification with mass spectrometry

BUB3 (endogenous) (from UniProt O43684 1-328)
binding: binds
